The target of the assay is His-tagged Keap1 (Keap1-His) purified from E. coli (UniProt Q14145). The assay is described as follows: pull-down; Keap1-His purified from E. coli incubated with in vitro transcribed/translated [35S]-labeled proteins; pulled down with nickel beads; SDS-PAGE and autoradiography; only the target purified.

Protein sequences, listed by entry. Tags and fused reporters are not part of them.
UniProt Q14145: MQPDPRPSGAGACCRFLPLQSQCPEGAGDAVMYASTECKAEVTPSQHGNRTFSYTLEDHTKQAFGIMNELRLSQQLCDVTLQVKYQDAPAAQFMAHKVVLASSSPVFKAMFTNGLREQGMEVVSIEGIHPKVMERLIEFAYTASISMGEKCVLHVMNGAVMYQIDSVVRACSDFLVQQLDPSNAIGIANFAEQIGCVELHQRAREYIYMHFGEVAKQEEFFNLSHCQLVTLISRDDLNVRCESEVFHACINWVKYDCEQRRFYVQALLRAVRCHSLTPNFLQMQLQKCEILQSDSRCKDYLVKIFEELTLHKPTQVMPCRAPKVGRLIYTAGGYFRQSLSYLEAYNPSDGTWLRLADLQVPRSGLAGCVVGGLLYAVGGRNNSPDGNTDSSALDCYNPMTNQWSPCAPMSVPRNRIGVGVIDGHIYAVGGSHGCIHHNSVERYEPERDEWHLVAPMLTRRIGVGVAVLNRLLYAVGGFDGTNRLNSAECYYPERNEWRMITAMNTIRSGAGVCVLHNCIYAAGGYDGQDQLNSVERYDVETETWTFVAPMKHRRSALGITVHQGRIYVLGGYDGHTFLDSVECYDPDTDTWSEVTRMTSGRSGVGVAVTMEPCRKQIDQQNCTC

These are yes or no findings as the source states them, for the method shown. Binding seen in cells or lysates may run through a third protein.

B1: full-length ENC1 (E-FL), in vitro translated, [35S]-labeled (protein, UniProt O14682 1-589)
chain: MSVSVHENRKSRASSGSINIYLFHKSSYADSVLTHLNLLRQQRLFTDVLLHAGNRTFPCHRAVLAACSRYFEAMFSGGLKESQDSEVNFDNSIHPEVLELLLDYAYSSRVIINEENAESLLEAGDMLEFQDIRDACAEFLEKNLHPTNCLGMLLLSDAHQCTKLYELSWRMCLSNFQTIRKNEDFLQLPQDMVVQLLSSEELETEDERLVYESAINWISYDLKKRYCYLPELLQTVRLALLPAIYLMENVAMEELITKQRKSKEIVEEAIRCKLKILQNDGVVTSLCARPRKTGHALFLLGGQTFMCDKLYLVDQKAKEIIPKADIPSPRKEFSACAIGCKVYITGGRGSENGVSKDVWVYDTLHEEWSKAAPMLVARFGHGSAELKHCLYVVGGHTAATGCLPASPSVSLKQVEHYDPTINKWTMVAPLREGVSNAAVVSAKLKLFAFGGTSVSHDKLPKVQCYDQCENRWTVPATCPQPWRYTAAAVLGNQIFIMGGDTEFSACSAYKFNSETYQWTKVGDVTAKRMSCHAVASGNKLYVVGGYFGIQRCKTLDCYDPTLDVWNSITTVPYSLIPTAFVSTWKHLPS
modifications: [35S]-methionine label
With B1, the binding result is on record as “no binding”.
